According to US20170000132A1, “BENZOXABOROLE FUNGICIDES” (SYNGENTA PARTICIPATIONS AG, priority 2013, published 2017):
Some entries share one result that the patent states for a list of compounds. At least one structure is not confirmed: it was looked up by name or label, or the drawing left a doubt.

Columns and labels:
Format in all cases: cell-based
[1] = test system: Glomerella lagenarium (Colletotrichum lagenarium); assay: Glomerella lagenarium / liquid culture (anthracnose); conditions: 200 ppm, PDB, 3-4 days after application
Gaeumannomyces graminis = Gaeumannomyces graminis / liquid culture (take-all of cereals); conditions: 200 ppm, PDB, 4-5 days after application
[2] = test system: Monographella nivalis (Microdochium nivale); assay: Monographella nivalis / liquid culture (foot rot cereals); conditions: 200 ppm, PDB, 4-5 days after application
[3] = test system: Mycosphaerella arachidis (Cercospora arachidicola); assay: Mycosphaerella arachidis / liquid culture (early leaf spot); conditions: 200 ppm, PDB, 4-5 days after application
Pythium ultimum = Pythium ultimum / liquid culture (seedling damping off); conditions: 200 ppm, potato dextrose broth, 2-3 days after application
[4] = test system: Mycosphaerella graminicola (Septoria tritici); assay: Mycosphaerella graminicola / liquid culture (Septoria blotch); conditions: 200 ppm, PDB, 4-5 days after application
[5] = test system: Thanatephorus cucumeris (Rhizoctonia solani); assay: Thanatephorus cucumeris / liquid culture (foot rot, damping-off); conditions: 200 ppm, PDB, 3-4 days after application

Measured: disease control (inhibition of growth, photometric)

CC(C)ON=Cc1cc(Cl)cc2c1B(O)OC2 (single isomer, unassigned) [Compound 206]
not listed: [5]
at least 80%: all other assays above

OB1OCc2cc(F)c(C=NNc3cccc(Cl)n3)cc21 (single isomer, unassigned) [Compound 85]
at least 80%: [1] | Pythium ultimum | [5]

OB1OCc2cc(Cl)cc(C=NNc3ccc(F)cc3F)c21 (single isomer, unassigned) [Compound 165]
at least 80%: [1] | Gaeumannomyces graminis | Pythium ultimum | [5]

OB1OCc2cc(F)cc(C=NNc3ccnc(Cl)c3)c21 (single isomer, unassigned) [Compound 255]
at least 80%: [1] | Pythium ultimum | [5]

OB1OCc2cccc(C=NNc3ccc(F)cc3F)c21 (single isomer, unassigned) [Compound 310]
at least 80%: [1] | Gaeumannomyces graminis | Pythium ultimum | [5]

CC(C)CON=Cc1cc(Cl)cc2c1B(O)OC2 (single isomer, unassigned) [Compound 204]
not listed: [5]
at least 80%: all other assays above

CC(ON=Cc1cc2c(cc1F)COB2O)c1cc(Cl)cc(Cl)c1 (single isomer, unassigned) [Compound 151]
not listed: [5]
at least 80%: all other assays above

CCOC(=O)C(C)ON=Cc1cc(Cl)cc2c1B(O)OC2 (single isomer, unassigned) [Compound 201]
not listed: [5]
at least 80%: all other assays above

CON=Cc1cc(Cl)cc2c1B(O)OC2 (single isomer, unassigned) [Compound 208]
not listed: [5]
at least 80%: all other assays above

CCCCON=Cc1cc2c(cc1F)COB2O (single isomer, unassigned) [Compound 127]
not listed: [5]
at least 80%: all other assays above

OB1OCc2cc(F)c(C=NNc3cc(F)ccc3F)cc21 (single isomer, unassigned) [Compound 96]
not listed: [3] | [4]
at least 80%: all other assays above

OB1OCc2cccc(C=NOCC=C(Cl)Cl)c21 (single isomer, unassigned) [Compound 334]
not listed: [3]
at least 80%: all other assays above

Cc1csc(NN=Cc2cc3c(cc2Cl)COB3O)n1 (single isomer, unassigned) [Compound 75]
at least 80%: [1] | Pythium ultimum | [5]

OB1OCc2cc(Cl)c(C=NNc3c(Cl)cccc3Cl)cc21 (single isomer, unassigned) [Compound 33]
not listed: [3] | [4]
at least 80%: all other assays above

CCCON=Cc1cc(Cl)cc2c1B(O)OC2 (single isomer, unassigned) [Compound 211]
not listed: [5]
at least 80%: all other assays above

CCCON=Cc1cc2c(cc1F)COB2O (single isomer, unassigned) [Compound 144]
not listed: [5]
at least 80%: all other assays above

CCON=Cc1cc(Cl)cc2c1B(O)OC2 (single isomer, unassigned) [Compound 207]
not listed: [5]
at least 80%: all other assays above

C=CCON=Cc1cc(Cl)cc2c1B(O)OC2 (single isomer, unassigned) [Compound 209]
not listed: [5]
at least 80%: all other assays above

OB1OCc2cc(Cl)cc(C=NNc3cc(F)ccc3F)c21 (single isomer, unassigned) [Compound 171]
not listed: [3] | [4]
at least 80%: all other assays above

CC(C)=CCON=Cc1cc2c(cc1Cl)COB2O (single isomer, unassigned) [Compound 51]
not listed: Pythium ultimum | [5]
at least 80%: all other assays above

C#CCOc1ccc(CON=Cc2cc3c(cc2F)COB3O)cc1OC (single isomer, unassigned) [Compound 154]
not listed: Pythium ultimum | [5]
at least 80%: all other assays above

CC(ON=Cc1cc2c(cc1Cl)COB2O)c1ccc(Cl)c(Cl)c1 (mixture of isomers) [Compound 68]
not listed: Pythium ultimum | [5]
at least 80%: all other assays above

C=C(Cl)CON=Cc1ccc2c(c1)COB2O (single isomer, unassigned) [Compound 402]
not listed: [5]
at least 80%: all other assays above

O=C(O)CCCON=Cc1cc(Cl)cc2c1B(O)OC2 (single isomer, unassigned) [Compound 212]
not listed: [5]
at least 80%: all other assays above
